Assay results from paper doi:10.1101/2025.04.28.650926 (bioRxiv, 2025).
No constants are given. Whether binding was seen depends on the method and setting. Some binding calls cover weakened binding; strength is not graded here.

Assays:
Settings in all cases: remark: other sources report otherwise
[1] = target: T1, Heat shock factor 1, wild type (HSF1-WT) (human), Q00613; experiment: native gel or EMSA
T1 chain: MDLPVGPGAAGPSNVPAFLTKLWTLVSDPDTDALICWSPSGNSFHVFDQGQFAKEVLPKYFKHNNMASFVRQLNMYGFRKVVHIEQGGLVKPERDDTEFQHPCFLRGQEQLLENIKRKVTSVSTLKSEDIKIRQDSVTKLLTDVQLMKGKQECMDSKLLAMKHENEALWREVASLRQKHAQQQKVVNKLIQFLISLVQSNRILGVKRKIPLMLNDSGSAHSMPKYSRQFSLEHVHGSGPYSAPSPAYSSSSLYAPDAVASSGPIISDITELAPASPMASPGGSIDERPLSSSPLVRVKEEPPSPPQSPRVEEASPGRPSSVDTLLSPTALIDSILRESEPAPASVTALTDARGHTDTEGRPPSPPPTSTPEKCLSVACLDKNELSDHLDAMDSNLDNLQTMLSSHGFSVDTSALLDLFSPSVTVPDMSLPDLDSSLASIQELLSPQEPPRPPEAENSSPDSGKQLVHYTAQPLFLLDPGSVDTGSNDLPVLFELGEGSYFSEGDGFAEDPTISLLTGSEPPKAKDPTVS

[2] = target: T1, Heat shock factor 1, wild type …; experiment: dynamic light scattering
[3] = target: T1, Heat shock factor 1, wild type …; experiment: native gel or EMSA

Measured: binding

B1: Heat shock factor 1, wild type (HSF1-WT), Q00613 1-529 (protein)
chain: T1 chain
binds: all assays above
